The values that follow are results of earlier work, collected in patent US12642806B2, “Cannabidiol compositions for use in treating heart conditions” (CARDIOL THERAPEUTICS INC., priority 2019, dated 2026).

SMILES strings stand for the structures.

For this data set the following is noted: background statement; cited from earlier work.

Regarding `C=C(C)[C@@H]1CCC(C)=C[C@H]1c1c(O)cc(CCCCC)cc1O` [CBD, cannabidiol], the solubility in water entry is listed as “virtually insoluble in water”.
